Results on two molecules are retold here after PMC10721955.

No constants are given. Whether binding was seen depends on the method and setting. For some assays here: Binding seen in cells or lysates may run through a third protein. Some results given as binding are weak or reduced against the parent protein; the word gives no strength. Tags and fused reporters may be left off the sequences shown.

Assay [1] addresses T1, HA-tagged human CRP2 (cysteine-and glycine-rich protein 2), in vitro translated (human) (UniProt Q16527).
T1 sequence: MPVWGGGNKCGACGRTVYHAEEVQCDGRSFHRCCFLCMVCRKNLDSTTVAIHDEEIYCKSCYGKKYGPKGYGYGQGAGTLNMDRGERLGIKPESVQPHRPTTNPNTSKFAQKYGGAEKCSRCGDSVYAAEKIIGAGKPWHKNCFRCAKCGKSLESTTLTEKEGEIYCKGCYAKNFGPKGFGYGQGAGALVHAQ
The assay can be described thus: co-IP; in vitro protein binding assay: mixtures (500 ul) of in vitro translated tagged proteins (wheat germ extract) immunoprecipitated with anti-HA affinity matrix or anti-Flag M2 gel (control gel beside), immunoblot; relative binding affinity normalised to the control = 100%. (In general: In western blotting, separated proteins are transferred to a membrane and probed.)

For assay [2], the target named is T2, Myc-tagged human SRF (serum response factor), in vitro translated (human) (UniProt P11831).
T2 sequence: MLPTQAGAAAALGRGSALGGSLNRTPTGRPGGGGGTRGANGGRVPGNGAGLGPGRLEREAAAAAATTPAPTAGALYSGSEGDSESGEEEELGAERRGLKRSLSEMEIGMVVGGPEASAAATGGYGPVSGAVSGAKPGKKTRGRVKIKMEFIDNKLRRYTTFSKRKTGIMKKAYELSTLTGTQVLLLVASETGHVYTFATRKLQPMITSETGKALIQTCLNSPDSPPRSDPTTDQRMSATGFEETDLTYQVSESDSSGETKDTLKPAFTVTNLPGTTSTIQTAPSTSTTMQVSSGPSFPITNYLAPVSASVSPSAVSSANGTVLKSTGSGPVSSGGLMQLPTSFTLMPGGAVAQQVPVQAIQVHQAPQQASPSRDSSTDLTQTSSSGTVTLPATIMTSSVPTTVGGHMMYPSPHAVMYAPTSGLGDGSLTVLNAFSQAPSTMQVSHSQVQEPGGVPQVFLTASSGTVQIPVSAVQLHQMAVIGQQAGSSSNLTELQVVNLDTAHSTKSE
In words: DNA affinity binding assay; biotinylated 3xCArG probe on Streptavidin M-280 Dynabeads incubated with in vitro translated proteins at 4°C for 3 hours with rotation; probe-bound proteins detected by immunoblot; control Dynabeads and free 3xCArG as controls.

B1: Myc-tagged human SRF (serum response factor), in vitro translated (protein, UniProt P11831 1-508)
chain: MLPTQAGAAAALGRGSALGGSLNRTPTGRPGGGGGTRGANGGRVPGNGAGLGPGRLEREAAAAAATTPAPTAGALYSGSEGDSESGEEEELGAERRGLKRSLSEMEIGMVVGGPEASAAATGGYGPVSGAVSGAKPGKKTRGRVKIKMEFIDNKLRRYTTFSKRKTGIMKKAYELSTLTGTQVLLLVASETGHVYTFATRKLQPMITSETGKALIQTCLNSPDSPPRSDPTTDQRMSATGFEETDLTYQVSESDSSGETKDTLKPAFTVTNLPGTTSTIQTAPSTSTTMQVSSGPSFPITNYLAPVSASVSPSAVSSANGTVLKSTGSGPVSSGGLMQLPTSFTLMPGGAVAQQVPVQAIQVHQAPQQASPSRDSSTDLTQTSSSGTVTLPATIMTSSVPTTVGGHMMYPSPHAVMYAPTSGLGDGSLTVLNAFSQAPSTMQVSHSQVQEPGGVPQVFLTASSGTVQIPVSAVQLHQMAVIGQQAGSSSNLTELQVVNLDTAHSTKSE
On to B1, for which the binding result in assay [1] is given as “binds”.

B2: HA-tagged human CRP2 (cysteine-and glycine-rich protein 2), in vitro translated (protein, UniProt Q16527 1-193)
chain: MPVWGGGNKCGACGRTVYHAEEVQCDGRSFHRCCFLCMVCRKNLDSTTVAIHDEEIYCKSCYGKKYGPKGYGYGQGAGTLNMDRGERLGIKPESVQPHRPTTNPNTSKFAQKYGGAEKCSRCGDSVYAAEKIIGAGKPWHKNCFRCAKCGKSLESTTLTEKEGEIYCKGCYAKNFGPKGFGYGQGAGALVHAQ
B2: in assay [2], the binding result is given as “binds”.
